Data from the supplement of paper PMC12823440, “Inhibitors supercharge kinase turnover through native proteolytic circuits” (Nature, 2025).
Where a name gives a salt, the structure may show the parent alone. This is one part of the list. Hit calls seldom repeat between salt and free forms of one compound.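 In K562 cells expressing nanoluciferase-fused kinases, luminescence was recorded at 4 h intervals between 2 and 18 h, normalized as percent of control with DMSO at 100% and a positive control at 0%. A significant (2 sigma) signal drop marks a time point as decreased. The authors' rule for a hit is not shown and takes in more than the number of time points.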

Sequences of proteins named here, by UniProt entry; tags and fusion partners are left off. A change or cut given only in a name is not applied to a line headed by its entry.
UniProt P36888, whole entry: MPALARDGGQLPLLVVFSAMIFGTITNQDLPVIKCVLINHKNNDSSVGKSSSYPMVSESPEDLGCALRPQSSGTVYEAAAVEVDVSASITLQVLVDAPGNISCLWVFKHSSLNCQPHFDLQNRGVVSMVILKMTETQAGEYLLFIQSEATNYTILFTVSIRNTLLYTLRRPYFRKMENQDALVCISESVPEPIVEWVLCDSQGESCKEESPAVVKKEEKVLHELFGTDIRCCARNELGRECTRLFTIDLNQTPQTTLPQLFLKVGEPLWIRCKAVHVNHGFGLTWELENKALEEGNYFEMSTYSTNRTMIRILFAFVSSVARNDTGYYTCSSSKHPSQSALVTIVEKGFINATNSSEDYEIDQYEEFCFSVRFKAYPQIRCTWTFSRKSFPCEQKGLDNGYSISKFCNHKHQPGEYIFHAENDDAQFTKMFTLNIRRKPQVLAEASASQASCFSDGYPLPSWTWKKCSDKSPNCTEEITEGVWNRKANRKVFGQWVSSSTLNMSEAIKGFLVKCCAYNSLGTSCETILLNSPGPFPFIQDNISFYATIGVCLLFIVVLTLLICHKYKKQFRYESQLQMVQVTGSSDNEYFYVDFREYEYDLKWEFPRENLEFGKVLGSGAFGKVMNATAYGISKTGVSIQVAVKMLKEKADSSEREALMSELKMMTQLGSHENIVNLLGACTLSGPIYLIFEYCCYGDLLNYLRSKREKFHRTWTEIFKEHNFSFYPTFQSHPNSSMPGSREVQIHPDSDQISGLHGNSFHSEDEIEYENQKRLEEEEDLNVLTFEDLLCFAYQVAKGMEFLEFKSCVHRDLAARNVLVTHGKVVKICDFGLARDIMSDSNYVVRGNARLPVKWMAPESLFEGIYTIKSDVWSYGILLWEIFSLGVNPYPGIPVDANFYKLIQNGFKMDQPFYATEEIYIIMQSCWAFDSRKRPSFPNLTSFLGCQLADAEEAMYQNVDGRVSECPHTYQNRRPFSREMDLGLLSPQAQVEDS
UniProt P06241, whole entry, looked up: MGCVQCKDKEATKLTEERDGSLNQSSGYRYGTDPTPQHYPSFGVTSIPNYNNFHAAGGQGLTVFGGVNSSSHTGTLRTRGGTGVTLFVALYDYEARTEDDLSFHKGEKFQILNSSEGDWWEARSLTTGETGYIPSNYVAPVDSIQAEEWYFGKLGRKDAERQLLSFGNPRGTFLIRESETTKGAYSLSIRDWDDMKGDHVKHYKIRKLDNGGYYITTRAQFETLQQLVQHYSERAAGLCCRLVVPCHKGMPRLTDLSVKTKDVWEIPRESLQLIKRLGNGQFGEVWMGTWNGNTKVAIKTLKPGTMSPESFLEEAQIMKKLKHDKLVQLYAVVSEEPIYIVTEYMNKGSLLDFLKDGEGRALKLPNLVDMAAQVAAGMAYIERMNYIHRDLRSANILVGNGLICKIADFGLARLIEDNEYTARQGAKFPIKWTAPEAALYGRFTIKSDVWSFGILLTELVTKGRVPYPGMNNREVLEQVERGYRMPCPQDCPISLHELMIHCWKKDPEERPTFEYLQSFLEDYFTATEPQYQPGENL
UniProt P49840: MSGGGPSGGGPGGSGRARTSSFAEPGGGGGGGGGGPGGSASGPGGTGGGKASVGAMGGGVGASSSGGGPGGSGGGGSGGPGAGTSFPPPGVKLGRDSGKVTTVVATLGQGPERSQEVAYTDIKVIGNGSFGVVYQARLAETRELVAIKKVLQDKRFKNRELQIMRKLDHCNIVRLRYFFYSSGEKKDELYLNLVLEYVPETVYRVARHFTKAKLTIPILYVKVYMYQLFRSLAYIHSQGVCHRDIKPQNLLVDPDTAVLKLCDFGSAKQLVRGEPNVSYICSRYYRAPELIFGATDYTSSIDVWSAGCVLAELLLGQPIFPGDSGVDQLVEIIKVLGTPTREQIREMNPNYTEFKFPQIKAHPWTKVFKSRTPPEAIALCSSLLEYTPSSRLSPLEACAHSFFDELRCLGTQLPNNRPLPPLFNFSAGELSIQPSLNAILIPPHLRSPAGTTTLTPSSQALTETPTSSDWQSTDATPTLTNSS
UniProt P23458: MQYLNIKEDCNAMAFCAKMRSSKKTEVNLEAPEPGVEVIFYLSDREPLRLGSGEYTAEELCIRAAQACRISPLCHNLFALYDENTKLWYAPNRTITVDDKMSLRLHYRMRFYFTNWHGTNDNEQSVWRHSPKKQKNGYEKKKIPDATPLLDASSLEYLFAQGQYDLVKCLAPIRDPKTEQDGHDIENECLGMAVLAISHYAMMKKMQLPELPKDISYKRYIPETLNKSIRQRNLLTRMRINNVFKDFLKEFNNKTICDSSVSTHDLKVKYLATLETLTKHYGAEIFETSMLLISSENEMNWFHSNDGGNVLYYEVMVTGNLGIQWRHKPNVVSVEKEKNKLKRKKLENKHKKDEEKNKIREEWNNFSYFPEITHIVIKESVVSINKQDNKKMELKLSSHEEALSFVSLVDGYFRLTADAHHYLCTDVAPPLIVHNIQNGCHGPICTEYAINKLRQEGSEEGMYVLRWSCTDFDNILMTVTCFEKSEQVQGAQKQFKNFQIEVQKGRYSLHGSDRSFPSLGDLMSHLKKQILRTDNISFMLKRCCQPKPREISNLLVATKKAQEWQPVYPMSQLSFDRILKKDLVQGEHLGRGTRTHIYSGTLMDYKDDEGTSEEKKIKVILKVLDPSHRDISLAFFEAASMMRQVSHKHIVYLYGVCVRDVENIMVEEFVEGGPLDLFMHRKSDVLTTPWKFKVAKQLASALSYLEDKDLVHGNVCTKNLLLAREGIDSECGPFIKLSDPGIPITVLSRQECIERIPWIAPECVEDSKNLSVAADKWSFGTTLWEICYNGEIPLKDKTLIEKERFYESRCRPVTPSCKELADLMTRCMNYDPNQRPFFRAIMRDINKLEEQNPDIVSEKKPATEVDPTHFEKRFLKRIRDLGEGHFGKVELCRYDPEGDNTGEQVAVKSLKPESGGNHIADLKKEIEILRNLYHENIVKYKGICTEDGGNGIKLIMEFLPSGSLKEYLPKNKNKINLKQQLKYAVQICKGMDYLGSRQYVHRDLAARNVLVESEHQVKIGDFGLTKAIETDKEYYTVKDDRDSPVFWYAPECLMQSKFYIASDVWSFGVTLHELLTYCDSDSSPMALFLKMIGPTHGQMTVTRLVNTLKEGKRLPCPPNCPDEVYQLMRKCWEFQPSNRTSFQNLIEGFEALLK
UniProt P06239: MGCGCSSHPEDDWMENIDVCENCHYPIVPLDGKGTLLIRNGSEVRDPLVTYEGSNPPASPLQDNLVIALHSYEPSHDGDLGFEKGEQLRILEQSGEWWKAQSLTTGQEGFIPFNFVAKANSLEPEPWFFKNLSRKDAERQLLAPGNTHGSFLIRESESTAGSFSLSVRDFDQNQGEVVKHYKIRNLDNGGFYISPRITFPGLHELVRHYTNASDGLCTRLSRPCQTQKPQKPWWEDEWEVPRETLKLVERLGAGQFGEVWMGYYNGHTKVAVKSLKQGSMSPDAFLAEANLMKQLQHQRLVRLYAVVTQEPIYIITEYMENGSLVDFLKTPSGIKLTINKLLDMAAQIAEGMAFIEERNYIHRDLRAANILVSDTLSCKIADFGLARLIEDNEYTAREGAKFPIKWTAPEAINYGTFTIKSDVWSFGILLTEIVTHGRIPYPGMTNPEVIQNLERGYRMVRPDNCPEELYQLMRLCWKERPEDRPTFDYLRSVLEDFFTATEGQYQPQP
UniProt P53667: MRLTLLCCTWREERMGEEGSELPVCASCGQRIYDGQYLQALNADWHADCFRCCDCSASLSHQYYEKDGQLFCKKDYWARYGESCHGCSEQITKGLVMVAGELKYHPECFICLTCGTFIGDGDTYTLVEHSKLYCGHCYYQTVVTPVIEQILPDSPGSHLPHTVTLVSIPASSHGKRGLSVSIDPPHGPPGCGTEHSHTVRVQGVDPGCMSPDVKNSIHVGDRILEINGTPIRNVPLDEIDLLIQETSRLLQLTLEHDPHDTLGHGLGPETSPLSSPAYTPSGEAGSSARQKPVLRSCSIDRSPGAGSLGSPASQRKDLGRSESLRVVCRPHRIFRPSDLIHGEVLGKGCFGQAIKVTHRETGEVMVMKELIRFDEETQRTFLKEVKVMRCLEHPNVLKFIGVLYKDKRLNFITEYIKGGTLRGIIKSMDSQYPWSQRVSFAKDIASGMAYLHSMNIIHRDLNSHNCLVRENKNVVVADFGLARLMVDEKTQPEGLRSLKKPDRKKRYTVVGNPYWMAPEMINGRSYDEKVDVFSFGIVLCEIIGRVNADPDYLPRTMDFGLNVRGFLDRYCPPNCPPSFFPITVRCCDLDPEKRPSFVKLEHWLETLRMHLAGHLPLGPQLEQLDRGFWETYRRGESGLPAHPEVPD
UniProt P53671: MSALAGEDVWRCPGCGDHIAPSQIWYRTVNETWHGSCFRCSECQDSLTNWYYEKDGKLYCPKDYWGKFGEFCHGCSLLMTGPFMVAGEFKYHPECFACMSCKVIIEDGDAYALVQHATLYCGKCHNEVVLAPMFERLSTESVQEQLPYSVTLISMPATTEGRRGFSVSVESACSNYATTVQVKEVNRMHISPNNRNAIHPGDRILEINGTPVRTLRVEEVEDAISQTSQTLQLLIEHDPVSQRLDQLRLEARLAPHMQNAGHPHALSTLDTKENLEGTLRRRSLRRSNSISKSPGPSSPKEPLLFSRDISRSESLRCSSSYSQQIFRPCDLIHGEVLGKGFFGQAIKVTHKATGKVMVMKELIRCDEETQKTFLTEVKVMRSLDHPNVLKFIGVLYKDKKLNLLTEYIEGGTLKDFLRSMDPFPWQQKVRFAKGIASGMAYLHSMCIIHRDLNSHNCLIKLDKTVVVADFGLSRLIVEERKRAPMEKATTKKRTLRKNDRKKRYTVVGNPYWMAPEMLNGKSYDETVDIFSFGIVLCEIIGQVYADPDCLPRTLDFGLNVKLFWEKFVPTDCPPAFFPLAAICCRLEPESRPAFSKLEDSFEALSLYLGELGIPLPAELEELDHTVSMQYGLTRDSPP
UniProt P28482, whole entry: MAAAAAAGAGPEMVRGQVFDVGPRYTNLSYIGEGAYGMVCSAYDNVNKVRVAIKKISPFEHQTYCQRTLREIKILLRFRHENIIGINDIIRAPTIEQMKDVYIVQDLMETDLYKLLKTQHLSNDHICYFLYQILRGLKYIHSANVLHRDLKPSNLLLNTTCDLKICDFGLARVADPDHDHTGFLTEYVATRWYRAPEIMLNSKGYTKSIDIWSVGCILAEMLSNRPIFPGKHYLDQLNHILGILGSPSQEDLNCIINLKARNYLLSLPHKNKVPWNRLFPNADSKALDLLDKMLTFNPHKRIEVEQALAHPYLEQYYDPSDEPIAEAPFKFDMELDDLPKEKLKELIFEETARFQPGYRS
UniProt P49137, whole entry, looked up: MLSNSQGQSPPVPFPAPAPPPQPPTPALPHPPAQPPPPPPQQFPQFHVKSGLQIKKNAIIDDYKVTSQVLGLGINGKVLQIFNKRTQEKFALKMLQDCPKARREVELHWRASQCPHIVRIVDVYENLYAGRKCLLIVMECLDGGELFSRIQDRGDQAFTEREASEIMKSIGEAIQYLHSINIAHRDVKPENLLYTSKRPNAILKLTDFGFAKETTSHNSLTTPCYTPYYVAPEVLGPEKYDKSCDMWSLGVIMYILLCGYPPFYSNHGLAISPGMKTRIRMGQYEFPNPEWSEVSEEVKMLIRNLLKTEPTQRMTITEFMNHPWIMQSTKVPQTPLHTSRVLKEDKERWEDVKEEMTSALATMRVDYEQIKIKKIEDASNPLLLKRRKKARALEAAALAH
UniProt Q16620, whole entry, looked up: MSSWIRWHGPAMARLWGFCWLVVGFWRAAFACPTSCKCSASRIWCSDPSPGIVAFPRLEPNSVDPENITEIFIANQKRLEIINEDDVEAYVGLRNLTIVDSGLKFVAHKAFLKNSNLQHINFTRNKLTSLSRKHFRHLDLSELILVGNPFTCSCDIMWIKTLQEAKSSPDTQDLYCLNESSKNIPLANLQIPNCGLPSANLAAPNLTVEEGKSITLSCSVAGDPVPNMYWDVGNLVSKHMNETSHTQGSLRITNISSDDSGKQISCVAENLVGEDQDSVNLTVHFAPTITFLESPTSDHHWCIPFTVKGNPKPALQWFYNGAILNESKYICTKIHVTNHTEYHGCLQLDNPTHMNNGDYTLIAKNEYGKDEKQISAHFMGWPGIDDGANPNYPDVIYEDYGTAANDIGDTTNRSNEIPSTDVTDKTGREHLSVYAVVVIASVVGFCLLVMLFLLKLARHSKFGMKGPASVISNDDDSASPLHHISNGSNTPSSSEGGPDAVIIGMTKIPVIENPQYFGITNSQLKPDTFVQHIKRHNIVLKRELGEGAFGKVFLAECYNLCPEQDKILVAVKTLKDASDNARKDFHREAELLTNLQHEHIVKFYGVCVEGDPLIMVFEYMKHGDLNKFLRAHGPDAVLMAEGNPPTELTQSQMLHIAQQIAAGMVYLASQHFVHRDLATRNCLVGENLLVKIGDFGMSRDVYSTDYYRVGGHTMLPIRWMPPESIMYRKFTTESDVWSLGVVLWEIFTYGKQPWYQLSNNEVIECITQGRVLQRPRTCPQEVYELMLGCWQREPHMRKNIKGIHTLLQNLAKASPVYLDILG

Columns and labels:
Assay in all cases: number of time points (of 5) at which kinase-Nluc abundance scored as decreased, DMSO-normalised (count); higher = more persistent destabilization
Conditions in all cases: K562; 2-18 h
FLT3 = FLT3 (UniProt P36888)
FYN = FYN (UniProt P06241)
GSK3A = GSK3A (UniProt P49840)
HER2 = HER2 (UniProt P04626)
INSRR = INSRR (UniProt P14616)
IRAK3 = IRAK3 (UniProt Q9Y616)
JAK1 = JAK1 (UniProt P23458)
LCK = LCK (UniProt P06239)
LIMK1 = LIMK1 (UniProt P53667)
LIMK2 = LIMK2 (UniProt P53671)
LMTK2 = LMTK2 (UniProt Q8IWU2)
LYN = LYN (UniProt P07948)
MAP2K1 = MAP2K1 (UniProt Q02750)
MAP2K2 = MAP2K2 (UniProt P36507)
MAP4K2 = MAP4K2 (UniProt Q12851)
MAPK1 = MAPK1 (UniProt P28482)
MAPK4 = MAPK4 (UniProt P31152)
MAPKAPK2 = MAPKAPK2 (UniProt P49137)
MKNK1 = MKNK1 (UniProt Q9BUB5)
NTRK2 = NTRK2 (UniProt Q16620)

Measured: number of time points

COc1cc2ncnc(Nc3cc(Br)c(O)c(Br)c3)c2cc1OC (2.5 µM)
0: all assays above

CN1CCN(c2ccc(-c3ccncc3-c3cc(F)c(O)c(F)c3)cc2)CC1 (10 µM)
0: all assays above

CN1CCN(c2ccc(-n3cc(-c4ccncc4OCC4CCNCC4)cn3)cc2)CC1 [MELK-8a (hydrochloride)] (10 µM)
2: HER2 | INSRR | LIMK2
1: LYN | MAPK4
4: LIMK1
3: FYN | IRAK3 | LMTK2 | MKNK1
0: all other assays above

CC(C)=CCC[C@](C)(O[C@@H]1O[C@H](CO[C@@H]2O[C@H](CO)[C@@H](O)[C@H](O)[C@H]2O)[C@@H](O)[C@H](O)[C@H]1O)[C@H]1CC[C@]2(C)[C@@H]1[C@H](O)C[C@@H]1[C@@]3(C)CC[C@H](O[C@@H]4O[C@H](CO)[C@@H](O)[C@H](O)[C@H]4O[C@@H]4O[C@H](CO)[C@@H](O)[C@H](O)[C@H]4O)C(C)(C)[C@@H]3CC[C@]12C [Ginsenoside Rb1] (10 µM)
0: all assays above

CC(=O)O/N=C1/C(c2c(O)[nH]c3cc(Br)ccc23)=Nc2ccccc21 [BIO-acetoxime] (10 µM)
0: all assays above

CCOc1cc(=O)[nH]cc1-c1ccc(CC(=O)Nc2cc(C(C)(C)C(F)(F)F)on2)c(F)c1 (10 µM)
0: all assays above

COc1c(O)cc(O)c2c(=O)cc(-c3ccccc3)oc12 [Wogonin] (10 µM)
5: FLT3
0: all other assays above

Cc1nn(CC(F)(F)F)cc1Nc1ncc(Br)c(NCc2ccc(S(N)(=O)=O)cc2)n1 (10 µM)
0: all assays above

CC(C1CC1)n1cnc2c(NCc3cccc(C(F)(F)F)c3)nc(NCCN(C)C)nc21 (configuration not stated) (10 µM)
0: all assays above

CCOC(=O)c1c(Nc2ccccc2Cl)oc(/C=C2\C=Nc3ncccc32)c1O (10 µM)
not listed: FYN
0: all other assays above

COc1ccc(Br)c(C=O)c1O [6-Bromo-2-hydroxy-3-methoxybenzaldehyde] (10 µM)
not listed: FYN
0: all other assays above

CC(C)n1c(CO)nc2c(F)cc(-c3nc(Nc4ccc(CN5CCNCC5)cn4)ncc3F)cc21 (10 µM)
3: FYN | HER2 | IRAK3 | LIMK2 | LMTK2 | NTRK2
2: MKNK1
1: LYN
4: FLT3 | INSRR | JAK1
0: all other assays above

CN1CCC(Nc2nc(Nc3ccc(Oc4ccccc4)cc3)c3c(=O)[nH]cc(Br)c3n2)CC1 (2.5 µM)
4: LIMK2
3: FYN
5: LIMK1
1: MAPK4
not listed: FLT3
0: all other assays above

O=C(NC[C@H](O)CO)c1ccncc1Nc1ccc(I)cc1F [Pimasertib] (10 µM)
1: LIMK2
2: INSRR
not listed: MAP2K1
0: all other assays above

O=C(O)/C=C(\CCc1ccc(Cl)cc1)c1ccccc1 (10 µM)
0: all assays above

C[C@@H]1COC(Nc2ccc3ncnc(Nc4ccc(OCc5nccs5)c(Cl)c4)c3c2)=N1 [Varlitinib] (10 µM)
5: FLT3
2: HER2 | LMTK2
4: IRAK3
not listed: JAK1
0: all other assays above

Cc1ccc2c(NS(=O)(=O)c3ccccc3Cl)cccc2c1Oc1ncccc1-c1ccnc(N[C@H]2CCCNC2)n1 (2.5 µM)
0: all assays above

CC(C)Cn1ncc2cc(Oc3ccc(F)cc3F)c(C(=O)NCCN(C)C)cc21 [p38α inhibitor 1] (10 µM)
0: all assays above

O=CN1CCN(c2ccc(C=C3C(=O)Nc4ccccc43)cc2)CC1 (10 µM)
0: all assays above

O=C(NCc1ccn[nH]1)c1cc([C@@H]2CCNC[C@H]2COc2ccc3c(c2)OCO3)ccc1F [GRK2-IN-1 (hydrochloride)] (10 µM)
0: all assays above

N#Cc1cnc(Nc2cc(NC[C@H]3CNCCO3)c(C(F)(F)F)cn2)cn1 (10 µM)
3: HER2 | LYN
1: INSRR | LIMK2
2: FYN | JAK1
not listed: FLT3
0: all other assays above

CN1CCN(Cc2ccc(-c3cn(C4CCC(O)CC4)c4nc(NCCC5CC5)ncc34)cc2)CC1 (configuration not stated) (2.5 µM)
4: LIMK1
3: FYN | LIMK2 | LMTK2
2: INSRR | IRAK3
1: HER2 | LYN | MKNK1
not listed: FLT3
0: all other assays above

COc1ccc2cc1Oc1ccc(cc1)C[C@H]1c3cc(c(OC)cc3CCN1C)Oc1c(O)c(OC)cc3c1[C@H](C2)N(C)CC3 [Fangchinoline] (2.5 µM)
not listed: LIMK1
0: all other assays above

CC/C(=C(\c1ccccc1)c1ccc(OCCNC)cc1)c1ccccc1 [N-Desmethyltamoxifen (hydrochloride)] (2.5 µM)
0: all assays above
